According to patent publication US20260055163A1:
Results are given in words; binding and its absence hold for the method and conditions named. Some binding calls cover weakened binding; strength is not graded here.

By UniProt entry, the sequences of proteins in these tests, tags left out. Where a name states a change or a piece, a line headed by the entry shows the natural chain unless it says otherwise.
UniProt P27037: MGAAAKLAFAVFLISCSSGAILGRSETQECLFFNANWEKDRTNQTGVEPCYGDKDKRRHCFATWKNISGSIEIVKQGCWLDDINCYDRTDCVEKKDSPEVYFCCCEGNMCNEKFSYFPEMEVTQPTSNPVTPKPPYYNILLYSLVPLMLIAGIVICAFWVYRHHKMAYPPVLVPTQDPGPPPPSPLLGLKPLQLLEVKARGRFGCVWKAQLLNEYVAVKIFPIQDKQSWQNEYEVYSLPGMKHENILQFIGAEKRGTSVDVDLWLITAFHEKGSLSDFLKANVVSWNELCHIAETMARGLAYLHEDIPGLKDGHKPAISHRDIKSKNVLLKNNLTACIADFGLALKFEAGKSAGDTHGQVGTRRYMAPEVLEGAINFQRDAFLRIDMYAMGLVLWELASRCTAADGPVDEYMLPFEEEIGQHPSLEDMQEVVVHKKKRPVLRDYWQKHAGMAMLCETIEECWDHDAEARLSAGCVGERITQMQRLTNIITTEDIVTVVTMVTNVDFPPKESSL

Experiments:
BMP10 = target: T1, BMP10 (UniProt O95393); experiment: similar binding assay (SPR, Biacore)
T1 sequence (looked up): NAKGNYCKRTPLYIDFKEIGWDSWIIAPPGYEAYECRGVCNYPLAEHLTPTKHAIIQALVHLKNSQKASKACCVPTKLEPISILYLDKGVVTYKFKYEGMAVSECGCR

activin B = target: T2, activin B (UniProt P09529); experiment: similar binding assay (SPR, Biacore)
T2 sequence (looked up): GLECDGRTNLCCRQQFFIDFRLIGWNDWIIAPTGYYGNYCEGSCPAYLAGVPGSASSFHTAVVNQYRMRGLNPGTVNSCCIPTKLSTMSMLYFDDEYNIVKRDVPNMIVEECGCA

GDF11 = target: T3, GDF11 (UniProt O95390); experiment: SPR (Biacore), GDF11 amine-coupled on CM5 chip
T3 sequence (looked up): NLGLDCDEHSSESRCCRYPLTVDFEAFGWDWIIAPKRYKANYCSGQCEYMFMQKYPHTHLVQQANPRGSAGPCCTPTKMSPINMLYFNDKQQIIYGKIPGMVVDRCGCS

binding (BMP10): binds
binding (activin B): binds
binding (GDF11): binds
Substance: ActRIIA-mFc (from UniProt P27037 20-135) (Fc fusion)
